Test results published in article doi:10.1101/2021.02.17.431740.
No constants are given. Whether binding was seen depends on the method and setting. Binding seen in cells or lysates may run through a third protein. Some results given as binding are weak or reduced against the parent protein; the word gives no strength. Tags and fused reporters may be left off the sequences shown.

Assays:
[1] = target: T1, HA-tagged WT PEAK3 (HEK293 cells) (UniProt Q6ZS72); assay: co-IP
T1 sequence: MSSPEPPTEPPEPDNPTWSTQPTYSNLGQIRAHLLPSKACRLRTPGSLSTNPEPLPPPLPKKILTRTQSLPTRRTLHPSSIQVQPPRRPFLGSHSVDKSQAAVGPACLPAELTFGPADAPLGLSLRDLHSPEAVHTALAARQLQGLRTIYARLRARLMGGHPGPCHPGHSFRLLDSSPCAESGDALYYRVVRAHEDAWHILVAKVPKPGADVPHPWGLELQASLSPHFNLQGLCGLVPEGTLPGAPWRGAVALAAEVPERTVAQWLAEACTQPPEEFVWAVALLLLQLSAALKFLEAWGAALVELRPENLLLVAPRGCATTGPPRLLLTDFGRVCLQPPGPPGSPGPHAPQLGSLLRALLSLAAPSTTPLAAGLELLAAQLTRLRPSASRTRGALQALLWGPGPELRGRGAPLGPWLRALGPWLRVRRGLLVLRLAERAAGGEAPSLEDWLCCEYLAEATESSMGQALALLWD

[2] = target: T2, HA-tagged WT PEAK3 (HEK293 cells), Q6ZS72; assay: co-IP; conditions: remark: other sources report otherwise
T2 chain: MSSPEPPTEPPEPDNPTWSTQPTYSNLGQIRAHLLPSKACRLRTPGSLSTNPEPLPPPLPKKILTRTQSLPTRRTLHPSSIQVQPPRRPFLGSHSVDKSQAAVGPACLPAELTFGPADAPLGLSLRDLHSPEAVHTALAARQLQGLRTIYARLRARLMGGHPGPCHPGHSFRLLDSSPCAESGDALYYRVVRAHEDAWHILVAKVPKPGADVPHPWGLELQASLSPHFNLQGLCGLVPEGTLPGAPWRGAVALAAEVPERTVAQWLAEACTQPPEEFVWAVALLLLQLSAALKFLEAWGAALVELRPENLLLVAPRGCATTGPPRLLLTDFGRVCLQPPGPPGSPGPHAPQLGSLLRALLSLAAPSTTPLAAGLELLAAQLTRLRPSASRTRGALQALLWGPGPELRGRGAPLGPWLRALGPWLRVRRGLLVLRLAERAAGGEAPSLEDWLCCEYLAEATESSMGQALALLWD

B1: HA-tagged WT PEAK3 (HEK293 cells) (protein, UniProt Q6ZS72 1-473)
chain: MSSPEPPTEPPEPDNPTWSTQPTYSNLGQIRAHLLPSKACRLRTPGSLSTNPEPLPPPLPKKILTRTQSLPTRRTLHPSSIQVQPPRRPFLGSHSVDKSQAAVGPACLPAELTFGPADAPLGLSLRDLHSPEAVHTALAARQLQGLRTIYARLRARLMGGHPGPCHPGHSFRLLDSSPCAESGDALYYRVVRAHEDAWHILVAKVPKPGADVPHPWGLELQASLSPHFNLQGLCGLVPEGTLPGAPWRGAVALAAEVPERTVAQWLAEACTQPPEEFVWAVALLLLQLSAALKFLEAWGAALVELRPENLLLVAPRGCATTGPPRLLLTDFGRVCLQPPGPPGSPGPHAPQLGSLLRALLSLAAPSTTPLAAGLELLAAQLTRLRPSASRTRGALQALLWGPGPELRGRGAPLGPWLRALGPWLRVRRGLLVLRLAERAAGGEAPSLEDWLCCEYLAEATESSMGQALALLWD
With B1 as the binder, how does the binding [1] read?
The binding was “binds”.

B2: CrkII (HEK293 cells), P46108-1 1-304 (protein)
chain: MAGNFDSEERSSWYWGRLSRQEAVALLQGQRHGVFLVRDSSTSPGDYVLSVSENSRVSHYIINSSGPRPPVPPSPAQPPPGVSPSRLRIGDQEFDSLPALLEFYKIHYLDTTTLIEPVSRSRQGSGVILRQEEAEYVRALFDFNGNDEEDLPFKKGDILRIRDKPEEQWWNAEDSEGKRGMIPVPYVEKYRPASASVSALIGGNQEGSHPQPLGGPEPGPYAQPSVNTPLPNLQNGPIYARVIQKRVPNAYDKTALALEVGELVKVTKINVSGQWEGECNGKRGHFPFTHVRLLDQQNPDEDFS
B2 was tested. Which binding [2] did it give?
Its binding is “binds”.
